{"sequences": {"note": "The chains behind the UniProt entries cited, without tags or fusion partners. Residues count along the entry.", "UniProt Q69091, residues 26-394": "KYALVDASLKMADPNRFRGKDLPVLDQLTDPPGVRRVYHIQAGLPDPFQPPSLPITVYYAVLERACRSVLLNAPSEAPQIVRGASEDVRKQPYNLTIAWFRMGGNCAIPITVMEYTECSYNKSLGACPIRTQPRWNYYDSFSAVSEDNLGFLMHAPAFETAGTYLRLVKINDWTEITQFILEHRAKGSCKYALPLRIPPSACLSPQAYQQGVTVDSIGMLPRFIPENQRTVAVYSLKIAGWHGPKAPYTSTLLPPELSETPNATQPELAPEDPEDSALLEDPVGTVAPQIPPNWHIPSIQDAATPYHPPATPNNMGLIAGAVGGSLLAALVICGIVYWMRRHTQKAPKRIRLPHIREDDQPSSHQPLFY"}, "source": "patent US6469155", "about": "(UNIVERSITA DEGLI STUDI DI BOLOGNA, dated 2002)", "binders": {"B1": {"name": "sV(HIgR)-Fc (Fc fusion)", "chain": "QVVQVNDSMYGFIGTDVVLHCSFANPLPSVKITQVTWQKSTNGSKQNVAIYNPSMGVSVLAPYRERVEFLRPSFTDGTIRLSRLELEDEGVYICGFATFPTGNRESQLNLTVMA", "notes": "Made in COS1 cells and purified on protein A; also called V1-Fc; soluble V domain of HIgR/PRR1; not shown: IgG Fc (Fc portion of human IgG1) from the Cos Fc Link (CFL) vector"}}, "molecular_target": "HSV-1 glycoprotein D purified from HSV-1-infected BHK cells (herpes simplex virus 1) (UniProt Q69091)", "test": "ELISA, gD immobilized (16 nM coating), detection with anti-human IgG-peroxidase", "note": "No constants are given. Whether binding was seen depends on the method and setting. Some binding calls cover weakened binding; strength is not graded here. Sequences can lack the tags named with a protein."}
{"binder": "B1", "values": [{"measurement": "binding", "result": "binds"}]}
